Experimental data from PubChem BioAssay AID540256 (National Center for Advancing Translational Sciences (NCATS), 2011).
The campaign covered roughly 300,000 compounds. About 3,700 (1.2%) were called active. Inconclusive means that the source gave no clear call. Such entries were picked first, then a sample of the others. The call rests on the fitted dose curve; tested in HEK293 cells. Potencies beside an inconclusive call are fits to weak or partial responses and may not hold up.

Experiment: qHTS for Inhibitors of binding or entry into cells for Lassa Virus; further: nearly all actives have a fitted effect of over 50% in size
Settings: Lassa virus pseudotype entry inhibition, cell reporter; activity change, negative = inhibition: at 37.9 µM (top of the series) unless noted
On the % scale 0 is the no-effect control and ±100 the full control effect; potency means the concentration at half of the fitted maximal effect.

Row | Compound | activity change, negative = inhibition | Potency
1 | COc1cccc(N2CCN(S(=O)(=O)c3ccc(-c4cc(C(F)(F)F)on4)s3)CC2)c1 | inactive: 10.2% [at 46.1 µM] | –
2 | CCOc1cc(/C=N\NC(=O)c2ccc(NC(=O)C(C)(C)C)cc2)ccc1OC(=O)c1ccc(C)cc1 | – | inconclusive: 4.47 µM [inhibitor, full curve, poor fit]
3 | COC1=C[C@H](C(=O)N2CCCC2)[C@H](C)[C@@H](c2ccccc2)CC1=O | – | inconclusive: 0.0119 µM [activator, full curve, poor fit]
4 | Cc1ccccc1N(C(=O)c1snc(C(N)=O)c1N)C(C(=O)NCC1CCCO1)c1ccc(N(C)C)cc1 (centres undefined) | – | inconclusive: 25.1 µM [inhibitor, single point]
5 | Cc1ccc(-n2c(C)cc(/C=C(\C#N)C(=O)NCC3CCCO3)c2C)cc1 (centres undefined) | – | inconclusive: 14.6 µM [inhibitor, partial curve, poor fit]
6 | c1ccc(-c2nc(NCc3ccco3)c3ccccc3n2)nc1 | – | inconclusive: 3.98 µM [inhibitor, partial curve]
7 | CCc1ccc(N2C(=O)CC(N3CCC(C(=O)OC)CC3)C2=O)cc1 (centres undefined) | inactive: 3.55% | –
8 | O=[N+]([O-])c1ccc(N2CCN(S(=O)(=O)Cc3ccccc3)CC2)cc1N1CCOCC1 | – | active: 12.6 µM
9 | Cc1cccc(-c2nnc(-c3ccc(N)cc3)o2)c1 | – | inconclusive: 14.6 µM [inhibitor, partial curve, poor fit]
10 | CCOC(=O)c1ccccc1NC(=O)CN(c1cc(C(F)(F)F)ccc1Cl)S(C)(=O)=O | inactive: 3.64% [at 46.1 µM] | –
11 | Cc1ccc(-c2noc(CN(C(=O)c3ccc(C(C)(C)C)cc3)C(C)C)n2)cc1 | inactive: -10.8% [at 46.1 µM] | –
12 | Cc1cc(C(=O)OCC(=O)N2CC(=O)Nc3ccccc32)c(C)n1-c1ccccc1 | – | inconclusive: 22.4 µM [inhibitor, single point]
13 | O=C(Nc1ccc(F)cc1)c1ncn(-c2ccccc2)n1 | – | inconclusive: 6.31 µM [activator, single point]
14 | CCOc1ncccc1C(=O)Nc1c(C)n(C)n(-c2ccccc2)c1=O | inactive: 0.742% | –
15 | Fc1cccc(F)c1CSc1nc2ccccc2[nH]1 | – | inconclusive: 0.366 µM [activator, full curve, poor fit]
16 | CN1c2cccc3cccc(c23)N(C)C1c1cccs1 | inactive: -11.8% | –
17 | Nc1nonc1C(=O)N/N=C/c1cccc([N+](=O)[O-])c1 | – | inconclusive: 1.26 µM [inhibitor, single point]
18 | COC(C(=O)Nc1ccnn1C1CCN(C(=O)c2ccc(C=O)cc2)CC1)c1ccccc1 (centres undefined) | – | inconclusive: 17.8 µM [activator, single point]
19 | COc1ccc(-c2csc(NC(=O)CN3C(=O)NC4(CCCC4)C3=O)n2)cc1OC | inactive: 1.89% | –

Two neighbouring entries already listed:
Row | Compound | activity change, negative = inhibition | Potency
8 | O=[N+]([O-])c1ccc(N2CCN(S(=O)(=O)Cc3ccccc3)CC2)cc1N1CCOCC1 | – | active: 12.6 µM
9 | Cc1cccc(-c2nnc(-c3ccc(N)cc3)o2)c1 | – | inconclusive: 14.6 µM [inhibitor, partial curve, poor fit]
